The test deals with protein deglycase DJ-1 (human) (UniProt Q99497). In words: co-IP; cells lysed in RIPA lysis buffer; 1.5 mg protein incubated with protein A+G agarose and anti-DJ-1 rabbit pAb overnight at 4°C; bound proteins analysed by western blotting. Background: Immunoblotting shows a protein as a band on a membrane.

Chains of the proteins cited; added tags and fusions are not shown. Residues count along the entry.
UniProt Q99497: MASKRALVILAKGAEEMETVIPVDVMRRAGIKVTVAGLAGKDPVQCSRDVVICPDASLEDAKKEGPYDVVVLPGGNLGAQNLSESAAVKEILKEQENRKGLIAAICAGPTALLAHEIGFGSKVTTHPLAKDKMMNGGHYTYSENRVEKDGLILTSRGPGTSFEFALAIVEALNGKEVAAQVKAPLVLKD
UniProt P11362, residues 22-822: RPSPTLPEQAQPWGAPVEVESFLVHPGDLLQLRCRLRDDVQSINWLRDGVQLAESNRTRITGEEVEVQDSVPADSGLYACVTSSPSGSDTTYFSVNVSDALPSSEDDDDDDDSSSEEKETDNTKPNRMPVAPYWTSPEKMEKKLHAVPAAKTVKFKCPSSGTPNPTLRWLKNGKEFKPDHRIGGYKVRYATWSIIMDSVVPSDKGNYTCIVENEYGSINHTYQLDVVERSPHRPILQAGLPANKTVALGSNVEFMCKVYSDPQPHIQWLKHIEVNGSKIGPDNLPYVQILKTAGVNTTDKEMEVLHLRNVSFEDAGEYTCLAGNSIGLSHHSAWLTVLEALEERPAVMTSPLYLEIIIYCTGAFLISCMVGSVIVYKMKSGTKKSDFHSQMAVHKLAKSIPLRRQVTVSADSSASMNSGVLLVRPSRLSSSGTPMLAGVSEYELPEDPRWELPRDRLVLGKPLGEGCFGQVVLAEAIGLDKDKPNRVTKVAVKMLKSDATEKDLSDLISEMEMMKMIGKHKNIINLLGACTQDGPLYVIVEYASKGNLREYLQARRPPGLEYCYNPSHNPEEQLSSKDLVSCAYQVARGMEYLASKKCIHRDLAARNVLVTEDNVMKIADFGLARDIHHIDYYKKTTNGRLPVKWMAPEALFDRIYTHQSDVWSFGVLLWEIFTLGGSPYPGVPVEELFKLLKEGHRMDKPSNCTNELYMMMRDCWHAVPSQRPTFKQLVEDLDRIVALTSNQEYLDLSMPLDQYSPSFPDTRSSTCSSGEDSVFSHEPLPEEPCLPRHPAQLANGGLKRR

These are yes or no findings as the source states them, for the method shown. Binding seen in cells or lysates may run through a third protein.

Consider “Fibroblast growth factor receptor 1 (from UniProt P11362 22-822)”, for which the binding result is “no binding”.
